Reference: patent publication US12213985B2, “Oral cannabinoid formulations” (Jazz Pharmaceuticals Research UK Limited, priority 2016, dated 2025)

Assay: Taste of alternative sweetener formulations
Details: sweetener batches of Table 2

Question: For `O=C1NS(=O)(=O)c2ccccc21` [Saccharin], which “taste of formulation made with the sweetener” value (shortened to “taste of formulation made”) is on record?
Answer: Its value is “unpleasant taste, and also had a lingering bitter after taste”.

Question: For `COC(=O)[C@H](Cc1ccccc1)NC(=O)[C@H](CC(=O)O)NCCC(C)(C)C` [Neotame, N—[N-(3,3-dimethylbutyl)-L-α-aspartyl]-L-phenylalanine 1-methyl ester], which “taste of formulation made” value is on record?
Answer: Its value is “good taste profile, with no bitter after taste”.

Question: Which “taste of formulation made” value does the source give for `O.O.O=C1NS(=O)(=O)c2ccccc21` [Saccharin Dihydrate] here?
Answer: The value was “unpleasant taste, and also had a lingering bitter after taste”.

Question: With `COC(=O)[C@H](Cc1ccccc1)NC(=O)[C@H](CC(=O)O)NCCCc1ccc(OC)c(O)c1` [Advantame, N—[N-3-(3-hydroxy-4-methoxyphenyl)propyl-α-L-aspartyl]-L-phenylalanine 1-methyl ester] as the compound, how does the “taste of formulation made” value read?
Answer: Its value is “good taste profile, with no bitter after taste”.
